Results are given in words; binding and its absence hold for the method and conditions named. Binding seen in cells or lysates may run through a third protein. Here binding means that the protein was enriched with, or labelled near, the bait; the list need not be complete. Sequences can lack the tags named with a protein. Blank lines part the entries; values can stand above or below the binder they belong to.
Molecular target: T1, SA1 (Stromalin Antigen 1, STAG1) (human (endogenous in HCT116)) (UniProt Q8WVM7)
T1 sequence: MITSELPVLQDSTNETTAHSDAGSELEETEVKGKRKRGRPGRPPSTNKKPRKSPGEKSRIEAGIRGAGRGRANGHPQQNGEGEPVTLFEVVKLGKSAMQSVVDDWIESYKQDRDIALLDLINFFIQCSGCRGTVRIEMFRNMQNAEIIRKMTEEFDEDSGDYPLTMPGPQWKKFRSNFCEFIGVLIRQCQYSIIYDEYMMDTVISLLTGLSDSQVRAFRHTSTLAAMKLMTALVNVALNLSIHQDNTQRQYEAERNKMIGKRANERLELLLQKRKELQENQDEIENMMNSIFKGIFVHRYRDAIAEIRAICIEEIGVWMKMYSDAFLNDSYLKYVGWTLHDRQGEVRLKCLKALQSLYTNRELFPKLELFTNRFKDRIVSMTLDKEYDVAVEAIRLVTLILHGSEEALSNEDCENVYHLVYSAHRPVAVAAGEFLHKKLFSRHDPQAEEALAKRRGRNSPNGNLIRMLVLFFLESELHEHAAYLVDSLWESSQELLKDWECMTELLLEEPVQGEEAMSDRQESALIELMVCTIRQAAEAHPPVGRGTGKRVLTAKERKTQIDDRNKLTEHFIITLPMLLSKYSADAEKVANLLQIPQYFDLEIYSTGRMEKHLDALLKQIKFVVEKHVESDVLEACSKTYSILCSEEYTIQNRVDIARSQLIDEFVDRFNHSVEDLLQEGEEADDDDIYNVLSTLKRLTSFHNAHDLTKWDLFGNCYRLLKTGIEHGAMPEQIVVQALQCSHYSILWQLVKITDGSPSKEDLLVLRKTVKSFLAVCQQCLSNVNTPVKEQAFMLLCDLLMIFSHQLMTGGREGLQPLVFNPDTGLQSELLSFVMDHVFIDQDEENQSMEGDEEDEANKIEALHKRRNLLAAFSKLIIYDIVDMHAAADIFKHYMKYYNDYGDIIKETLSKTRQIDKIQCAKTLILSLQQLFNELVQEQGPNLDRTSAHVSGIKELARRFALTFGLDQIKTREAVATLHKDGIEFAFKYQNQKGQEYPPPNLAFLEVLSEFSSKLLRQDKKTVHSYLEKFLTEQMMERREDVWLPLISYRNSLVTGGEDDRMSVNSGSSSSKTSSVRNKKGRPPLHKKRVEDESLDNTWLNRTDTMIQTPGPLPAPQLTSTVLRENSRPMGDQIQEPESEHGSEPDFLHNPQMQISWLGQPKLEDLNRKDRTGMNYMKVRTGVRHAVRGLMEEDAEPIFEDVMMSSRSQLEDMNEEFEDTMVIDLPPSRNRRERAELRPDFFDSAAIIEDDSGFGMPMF
Experiment: affinity purification with mass spectrometry

B2: FTSJ3 (protein, UniProt Q8IY81 1-847)
chain: MGKKGKVGKSRRDKFYHLAKETGYRSRSAFKLIQLNRRFQFLQKARALLDLCAAPGGWLQVAAKFMPVSSLIVGVDLVPIKPLPNVVTLQQDITTERCRQALRKELKTWKVDVVLNDGAPNVGASWVHDAYSQAHLTLMALRLACDFLARGGSFITKVFRSRDYQPLLWIFQQLFRRVQATKPQASRHESAEIFVVCQGFLAPDKVDSKFFDPKFAFKEVEVQAKTVTELVTKKKPKAEGYAEGDLTLYHRTSVTDFLRAANPVDFLSKASEIMVDDEELAQHPATTEDIRVCCQDIRVLGRKELRSLLNWRTKLRRYVAKKLKEQAKALDISLSSGEEDEGDEEDSTAGTTKQPSKEEEEEEEEEQLNQTLAEMKAQEVAELKRKKKKLLREQRKQRERVELKMDLPGVSIADEGETGMFSLSTIRGHQLLEEVTQGDMSAADTFLSDLPRDDIYVSDVEDDGDDTSLDSDLDPEELAGVRGHQGLRDQKRMRLTEVQDDKEEEEEENPLLVPLEEKAVLQEEQANLWFSKGSFAGIEDDADEALEISQAQLLFENRRKGRQQQQKQQLPQTPPSCLKTEIMSPLYQDEAPKGTEASSGTEAATGLEGEEKDGISDSDSSTSSEEEESWEPLRGKKRSRGPKSDDDGFEIVPIEDPAKHRILDPEGLALGAVIASSKKAKRDLIDNSFNRYTFNEDEGELPEWFVQEEKQHRIRQLPVGKKEVEHYRKRWREINARPIKKVAEAKARKKRRMLKRLEQTRKKAEAVVNTVDISEREKVAQLRSLYKKAGLGKEKRHVTYVVAKKGVGRKVRRPAGVRGHFKVVDSRMKKDQRAQQRKEQKKKHKRK
- binding: binds

B4: ADAR1 (protein, UniProt P55265 1-1226)
chain: MNPRQGYSLSGYYTHPFQGYEHRQLRYQQPGPGSSPSSFLLKQIEFLKGQLPEAPVIGKQTPSLPPSLPGLRPRFPVLLASSTRGRQVDIRGVPRGVHLRSQGLQRGFQHPSPRGRSLPQRGVDCLSSHFQELSIYQDQEQRILKFLEELGEGKATTAHDLSGKLGTPKKEINRVLYSLAKKGKLQKEAGTPPLWKIAVSTQAWNQHSGVVRPDGHSQGAPNSDPSLEPEDRNSTSVSEDLLEPFIAVSAQAWNQHSGVVRPDSHSQGSPNSDPGLEPEDSNSTSALEDPLEFLDMAEIKEKICDYLFNVSDSSALNLAKNIGLTKARDINAVLIDMERQGDVYRQGTTPPIWHLTDKKRERMQIKRNTNSVPETAPAAIPETKRNAEFLTCNIPTSNASNNMVTTEKVENGQEPVIKLENRQEARPEPARLKPPVHYNGPSKAGYVDFENGQWATDDIPDDLNSIRAAPGEFRAIMEMPSFYSHGLPRCSPYKKLTECQLKNPISGLLEYAQFASQTCEFNMIEQSGPPHEPRFKFQVVINGREFPPAEAGSKKVAKQDAAMKAMTILLEEAKAKDSGKSEESSHYSTEKESEKTAESQTPTPSATSFFSGKSPVTTLLECMHKLGNSCEFRLLSKEGPAHEPKFQYCVAVGAQTFPSVSAPSKKVAKQMAAEEAMKALHGEATNSMASDNQPEGMISESLDNLESMMPNKVRKIGELVRYLNTNPVGGLLEYARSHGFAAEFKLVDQSGPPHEPKFVYQAKVGGRWFPAVCAHSKKQGKQEAADAALRVLIGENEKAERMGFTEVTPVTGASLRRTMLLLSRSPEAQPKTLPLTGSTFHDQIAMLSHRCFNTLTNSFQPSLLGRKILAAIIMKKDSEDMGVVVSLGTGNRCVKGDSLSLKGETVNDCHAEIISRRGFIRFLYSELMKYNSQTAKDSIFEPAKGGEKLQIKKTVSFHLYISTAPCGDGALFDKSCSDRAMESTESRHYPVFENPKQGKLRTKVENGEGTIPVESSDIVPTWDGIRLGERLRTMSCSDKILRWNVLGLQGALLTHFLQPIYLKSVTLGYLFSQGHLTRAICCRVTRDGSAFEDGLRHPFIVNHPKVGRVSIYDSKRQSGKTKETSVNWCLADGYDLEILDGTRGTVDGPRNELSRVSKKNIFLLFKKLCSFRYRRDLLRLSYGEAKKAARDYETAKNYFKKGLKDMGYGNWISKPQEEKNFYLCPV
- binding: binds

Results, then the binder that gave them:

- binding: binds
B1: SMARCAL1 (protein, UniProt Q9NZC9 1-954)
chain: MSLPLTEEQRKKIEENRQKALARRAEKLLAEQHQRTSSGTSIAGNPFQAKQGPSQNFPRESCKPVSHGVIFKQQNLSSSSNADQRPHDSHSFQAKGIWKKPEEMPTACPGHSPRSQMALTGISPPLAQSPPEVPKQQLLSYELGQGHAQASPEIRFTPFANPTHKPLAKPKSSQETPAHSSGQPPRDAKLEAKTAKASPSGQNISYIHSSSESVTPRTEGRLQQKSGSSVQKGVNSQKGKCVRNGDRFQVLIGYNAELIAVFKTLPSKNYDPDTKTWNFSMNDYSALMKAAQSLPTVNLQPLEWAYGSSESPSTSSEGQAGLPSAPSLSFVKGRCMLISRAYFEADISYSQDLIALFKQMDSRRYDVKTRKWSFLLEEHSKLIAKVRCLPQVQLDPLPTTLTLAFASQLKKTSLSLTPDVPEADLSEVDPKLVSNLMPFQRAGVNFAIAKGGRLLLADDMGLGKTIQAICIAAFYRKEWPLLVVVPSSVRFTWEQAFLRWLPSLSPDCINVVVTGKDRLTAGLINIVSFDLLSKLEKQLKTPFKVVIIDESHFLKNSRTARCRAAMPVLKVAKRVILLSGTPAMSRPAELYTQIIAVKPTFFPQFHAFGLRYCDAKRMPWGWDYSGSSNLGELKLLLEEAVMLRRLKSDVLSQLPAKQRKIVVIAPGRINARTRAALDAAAKEMTTKDKTKQQQKDALILFFNRTAEAKIPSVIEYILDLLESGREKFLVFAHHKVVLDAITQELERKHVQHIRIDGSTSSAEREDLCQQFQLSERHAVAVLSITAANMGLTFSSADLVVFAELFWNPGVLIQAEDRVHRIGQTSSVGIHYLVAKGTADDYLWPLIQEKIKVLAEAGLSETNFSEMTESTDYLYKDPKQQKIYDLFQKSFEKEGSDMELLEAAESFDPGSASGTSGSSSQNMGDTLDESSLTASPQKKRRFEFFDNWDSFTSPL

- binding: binds
B3: PDS5B (protein, UniProt Q9NTI5 1-1447)
chain: MAHSKTRTNDGKITYPPGVKEISDKISKEEMVRRLKMVVKTFMDMDQDSEEEKELYLNLALHLASDFFLKHPDKDVRLLVACCLADIFRIYAPEAPYTSPDKLKDIFMFITRQLKGLEDTKSPQFNRYFYLLENIAWVKSYNICFELEDSNEIFTQLYRTLFSVINNGHNQKVHMHMVDLMSSIICEGDTVSQELLDTVLVNLVPAHKNLNKQAYDLAKALLKRTAQAIEPYITNFFNQVLMLGKTSISDLSEHVFDLILELYNIDSHLLLSVLPQLEFKLKSNDNEERLQVVKLLAKMFGAKDSELASQNKPLWQCYLGRFNDIHVPIRLECVKFASHCLMNHPDLAKDLTEYLKVRSHDPEEAIRHDVIVSIVTAAKKDILLVNDHLLNFVRERTLDKRWRVRKEAMMGLAQIYKKYALQSAAGKDAAKQIAWIKDKLLHIYYQNSIDDRLLVERIFAQYMVPHNLETTERMKCLYYLYATLDLNAVKALNEMWKCQNLLRHQVKDLLDLIKQPKTDASVKAIFSKVMVITRNLPDPGKAQDFMKKFTQVLEDDEKIRKQLEVLVSPTCSCKQAEGCVREITKKLGNPKQPTNPFLEMIKFLLERIAPVHIDTESISALIKQVNKSIDGTADDEDEGVPTDQAIRAGLELLKVLSFTHPISFHSAETFESLLACLKMDDEKVAEAALQIFKNTGSKIEEDFPHIRSALLPVLHHKSKKGPPRQAKYAIHCIHAIFSSKETQFAQIFEPLHKSLDPSNLEHLITPLVTIGHIALLAPDQFAAPLKSLVATFIVKDLLMNDRLPGKKTTKLWVPDEEVSPETMVKIQAIKMMVRWLLGMKNNHSKSGTSTLRLLTTILHSDGDLTEQGKISKPDMSRLRLAAGSAIVKLAQEPCYHEIITLEQYQLCALAINDECYQVRQVFAQKLHKGLSRLRLPLEYMAICALCAKDPVKERRAHARQCLVKNINVRREYLKQHAAVSEKLLSLLPEYVVPYTIHLLAHDPDYVKVQDIEQLKDVKECLWFVLEILMAKNENNSHAFIRKMVENIKQTKDAQGPDDAKMNEKLYTVCDVAMNIIMSKSTTYSLESPKDPVLPARFFTQPDKNFSNTKNYLPPEMKSFFTPGKPKTTNVLGAVNKPLSSAGKQSQTKSSRMETVSNASSSSNPSSPGRIKGRLDSSEMDHSENEDYTMSSPLPGKKSDKRDDSDLVRSELEKPRGRKKTPVTEQEEKLGMDDLTKLVQEQKPKGSQRSRKRGHTASESDEQQWPEEKRLKEDILENEDEQNSPPKKGKRGRPPKPLGGGTPKEEPTMKTSKKGSKKKSGPPAPEEEEEEERQSGNTEQKSKSKQHRVSRRAQQRAESPESSAIESTQSTPQKGRGRPSKTPSPSQPKKNVRVGRSKQAATKENDSSEEVDVFQGSSPVDDIPQEETEEEEVSTVNVRRRSAKRERR
